From PMC1888729
No constants are given. Whether binding was seen depends on the method and setting. Binding seen in cells or lysates may run through a third protein. These calls come from enrichment with a bait or labelling near it, and not all partners need be listed. A no says only that the protein was not detected with the bait.

Protein sequences, listed by entry. Tags and fused reporters are not part of them. Lines headed by an entry give the natural chain unless they say otherwise; changes in a name come on top.
UniProt Q9UHX1: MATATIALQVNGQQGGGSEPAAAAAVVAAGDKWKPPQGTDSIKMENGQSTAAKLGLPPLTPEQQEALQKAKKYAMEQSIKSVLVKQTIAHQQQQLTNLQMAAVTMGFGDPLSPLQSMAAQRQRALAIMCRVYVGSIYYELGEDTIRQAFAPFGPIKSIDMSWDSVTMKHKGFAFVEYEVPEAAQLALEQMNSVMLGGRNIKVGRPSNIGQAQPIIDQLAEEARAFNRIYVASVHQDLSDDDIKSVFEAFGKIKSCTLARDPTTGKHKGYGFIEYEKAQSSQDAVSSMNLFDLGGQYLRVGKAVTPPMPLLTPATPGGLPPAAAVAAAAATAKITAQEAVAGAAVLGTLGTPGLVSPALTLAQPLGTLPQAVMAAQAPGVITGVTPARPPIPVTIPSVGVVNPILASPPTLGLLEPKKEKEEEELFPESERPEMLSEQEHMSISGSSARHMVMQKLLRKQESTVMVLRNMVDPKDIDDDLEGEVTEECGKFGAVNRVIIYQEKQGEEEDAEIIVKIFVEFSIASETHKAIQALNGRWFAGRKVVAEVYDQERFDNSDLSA

B1: 9G8 (protein, UniProt Q16629 1-238)
chain: MSRYGRYGGETKVYVGNLGTGAGKGELERAFSYYGPLRTVWIARNPPGFAFVEFEDPRDAEDAVRGLDGKVICGSRVRVELSTGMPRRSRFDRPPARRPFDPNDRCYECGEKGHYAYDCHRYSRRRRSRSRSRSHSRSRGRRYSRSRSRSRGRRSRSASPRRSRSISLRRSRSASLRRSRSGSIKGSRYFQSPSRSRSRSRSISRPRSSRSKSRSPSPKRSRSPSGSPRRSASPERMD
B2: SC35 (protein, UniProt Q01130 1-221)
chain: MSYGRPPPDVEGMTSLKVDNLTYRTSPDTLRRVFEKYGRVGDVYIPRDRYTKESRGFAFVRFHDKRDAEDAMDAMDGAVLDGRELRVQMARYGRPPDSHHSRRGPPPRRYGGGGYGRRSRSPRRRRRSRSRSRSRSRSRSRSRYSRSKSRSRTRSRSRSTSKSRSARRSKSKSSSVSRSRSRSRSRSRSRSPPPVSKRESKSRSRSKSPPKSPEEEGAVSS
B3: TRA-2 alpha (protein, UniProt Q13595 1-282)
chain: MSDVEENNFEGRESRSQSKSPTGTPARVKSESRSGSRSPSRVSKHSESHSRSRSKSRSRSRRHSHRRYTRSRSHSHSHRRRSRSRSYTPEYRRRRSRSHSPMSNRRRHTGSRANPDPNTCLGVFGLSLYTTERDLREVFSRYGPLSGVNVVYDQRTGRSRGFAFVYFERIDDSKEAMERANGMELDGRRIRVDYSITKRAHTPTPGIYMGRPTHSGGGGGGGGGGGGGGGGRRRDSYYDRGYDRGYDRYEDYDYRYRRRSPSPYYSRYRSRSRSRSYSPRRY
B4: TRA2-beta (protein, UniProt P62995 1-288)
chain: MSDSGEQNYGERESRSASRSGSAHGSGKSARHTPARSRSKEDSRRSRSKSRSRSESRSRSRRSSRRHYTRSRSRSRSHRRSRSRSYSRDYRRRHSHSHSPMSTRRRHVGNRANPDPNCCLGVFGLSLYTTERDLREVFSKYGPIADVSIVYDQQSRRSRGFAFVYFENVDDAKEAKERANGMELDGRRIRVDFSITKRPHTPTPGIYMGRPTYGSSRRRDYYDRGYDRGYDDRDYYSRSYRGGGGGGGGWRAAQDRDQIYRRRSPSPYYSRGGYRSRSRSRSYSPRRY
B5: SF1 (protein, UniProt Q15637 1-639)
chain: MATGANATPLDFPSKKRKRSRWNQDTMEQKTVIPGMPTVIPPGLTREQERAYIVQLQIEDLTRKLRTGDLGIPPNPEDRSPSPEPIYNSEGKRLNTREFRTRKKLEEERHNLITEMVALNPDFKPPADYKPPATRVSDKVMIPQDEYPEINFVGLLIGPRGNTLKNIEKECNAKIMIRGKGSVKEGKVGRKDGQMLPGEDEPLHALVTANTMENVKKAVEQIRNILKQGIETPEDQNDLRKMQLRELARLNGTLREDDNRILRPWQSSETRSITNTTVCTKCGGAGHIASDCKFQRPGDPQSAQDKARMDKEYLSLMAELGEAPVPASVGSTSGPATTPLASAPRPAAPANNPPPPSLMSTTQSRPPWMNSGPSESRPYHGMHGGGPGGPGGGPHSFPHPLPSLTGGHGGHPMQHNPNGPPPPWMQPPPPPMNQGPHPPGHHGPPPMDQYLGSTPVGSGVYRLHQGKGMMPPPPMGMMPPPPPPPSGQPPPPPSGPLPPWQQQQQQPPPPPPPSSSMASSTPLPWQQNTTTTTTSAGTGSIPPWQQQQAAAAASPGAPQMQGNPTMVPLPPGVQPPLPPGAPPPPPPPPPGSAGMMYAPPPPPPPPMDPSNFVTMMGMGVAGMPPFGMPPAPPPPPPQN

The binders below were run against FLAG-V5-tagged PUF60 (PUF60L) (human) (UniProt Q9UHX1) (assay: affinity purification with mass spectrometry; F-V5-PUF60L precipitated from HeLa S3 nuclear extract on ANTI-FLAG M2 Affinity Gel, 1 h at 4°C, IP buffer (20 mM Hepes pH 8, 150 mM KCl, 1.5 mM MgCl2); washes with 250 mM KCl, 0.05% Triton X-100, one with 200 ng/ml RNase A; digested on the beads, or eluted with FLAG peptide and gel bands excised; only proteins found in both experiments and absent from control HeLa extract are listed).
B1 was tested, and the binding was “binds”. For B2, the binding was “binds”. For B3, the binding was “binds”. With B4 the binding was “binds”. In the case of B5, the binding is reported as “no binding”.
